We go through one molecule from doi:10.1101/2023.06.14.544976.

The assay concerns the target SBP-FLAG tagged RAVER1 wild-type protein. The assay can be described thus: affinity purification with mass spectrometry.

Results are given in words; binding and its absence hold for the method and conditions named. In cells and extracts the contact can be indirect. Here binding means that the protein was enriched with, or labelled near, the bait; the list need not be complete.

B1: SRSF2 (protein, UniProt Q01130 1-221)
chain: MSYGRPPPDVEGMTSLKVDNLTYRTSPDTLRRVFEKYGRVGDVYIPRDRYTKESRGFAFVRFHDKRDAEDAMDAMDGAVLDGRELRVQMARYGRPPDSHHSRRGPPPRRYGGGGYGRRSRSPRRRRRSRSRSRSRSRSRSRSRYSRSKSRSRTRSRSRSTSKSRSARRSKSKSSSVSRSRSRSRSRSRSRSPPPVSKRESKSRSRSKSPPKSPEEEGAVSS
As to B1, the binding result is recorded as “binds”.
